Experimental data reported in US7704961B2, “Avermectins and avermectin monosacharides substituted in the 4′-and 4″ position having pesticidal properties” (Merial Limited, priority 2003, dated 2010).
Some results were stated once for a whole list of compounds, not compound by compound. For some assays here: For at least one compound, name, drawing or mass did not settle the structure.

Tests used:
Type in all cases: in vivo
[1] = tested on: Frankliniella occidentalis; test: Activity against Frankliniella occidentalis (Example B5, sprayed bean leaf discs); conditions: 12.5 ppm of active compound, sprayed bean leaf discs on agar, mixed population, after 10 days
Tetranychus urticae = test: Activity against Tetranychus urticae (Example B7, sprayed bean plants); conditions: 12.5 ppm of active compound, spray on young bean plants 1 day after populating with mixed population, 25° C., 6 days
Diabrotica balteata = test: Activity against Diabrotica balteata (Example B6, sprayed maize seedlings); conditions: 12.5 ppm of active compound, spray on maize seedlings, larvae of the second stage, after 6 days
Spodoptera littoralis = test: Activity against Spodoptera littoralis (Example B1, sprayed soya bean plants); conditions: 12.5 ppm of active compound, spray on young soya bean plants, caterpillars of the first stage, 3 days later
Plutella xylostella = test: Activity against Plutella xylostella caterpillars (Example B4, sprayed cabbage plants); conditions: 12.5 ppm of active compound, spray on young cabbage plants, caterpillars of the first stage, after 3 days
Heliothis virescens = test: Activity against Heliothis virescens (Example B3, eggs on filter paper); conditions: 12.5 ppm of active compound, 0.8 ml on filter paper with 0- to 24-hour-old eggs, after 6 days

## 4′-(S)—O-[(Methylamino)thiocarbonyl]avermectin B1 monosaccharide [Compound 5.2]
[1]
  reduction in the pest population: more than 80%

## CCNC(=O)OC1C(C)OC(OC2C(C)OC(OC3C(C)=CCC4CC(CC5(C=CC(C)C(C(C)CC)O5)O4)OC(=O)C4C=C(C)C(O)C5OCC(=CC=CC3C)C45O)CC2OC)CC1OC (centres unmarked) [Compound 1.2]
Tetranychus urticae
  reduction in the pest population: more than 80%

## CCC(C)C1OC2(C=CC1C)CC1CC(CC=C(C)C(OC3CC(OC)C(OC4CC(OC)C(OC(=O)NC(C)C)C(C)O4)C(C)O3)C(C)C=CC=C3COC4C(O)C(C)=CC(C(=O)O1)C34O)O2 (centres unmarked) [Compound 1.4]
Diabrotica balteata
  reduction in the pest population: more than 80%
Spodoptera littoralis
  reduction in the pest population: more than 80%

## CCC(C)C1OC2(C=CC1C)CC1CC(CC=C(C)C(OC3CC(OC)C(OC4CC(OC)C(OC(=O)NCCOC)C(C)O4)C(C)O3)C(C)C=CC=C3COC4C(O)C(C)=CC(C(=O)O1)C34O)O2 (centres unmarked) [Compound 1.15]
Plutella xylostella
  reduction in the pest population: more than 80%

## CCC(C)C1OC2(C=CC1C)CC1CC(CC=C(C)C(OC3CC(OC)C(OC4CC(OC)C(OC(=O)NC5CC5)C(C)O4)C(C)O3)C(C)C=CC=C3COC4C(O)C(C)=CC(C(=O)O1)C34O)O2 (centres unmarked) [Compound 1.21]
Diabrotica balteata
  reduction in the pest population: more than 80%

## CCC(C)C1OC2(C=CC1C)CC1CC(CC=C(C)C(OC3CC(OC)C(OC4CC(OC)C(OC(=O)NCC(OC)OC)C(C)O4)C(C)O3)C(C)C=CC=C3COC4C(O)C(C)=CC(C(=O)O1)C34O)O2 (centres unmarked) [Compound 1.23]
Plutella xylostella
  reduction in the pest population: more than 80%

## CCC(C)C1OC2(C=CC1C)CC1CC(CC=C(C)C(OC3CC(OC)C(OC4CC(OC)C(OC(=O)N5CCOCC5)C(C)O4)C(C)O3)C(C)C=CC=C3COC4C(O)C(C)=CC(C(=O)O1)C34O)O2 (centres unmarked) [Compound 1.24]
[1]
  reduction in the pest population: more than 80%

## CCC(C)C1OC2(C=CC1C)CC1CC(CC=C(C)C(OC3CC(OC)C(OC4CC(OC)C(OC(=O)NCC(F)(F)F)C(C)O4)C(C)O3)C(C)C=CC=C3COC4C(O)C(C)=CC(C(=O)O1)C34O)O2 (centres unmarked) [Compound 1.26]
Plutella xylostella
  reduction in the pest population: more than 80%
Diabrotica balteata
  reduction in the pest population: more than 80%

## CCC(C)C1OC2(C=CC1C)CC1CC(CC=C(C)C(OC3CC(OC)C(OC4CC(OC)C(OC(=O)NCCN)C(C)O4)C(C)O3)C(C)C=CC=C3COC4C(O)C(C)=CC(C(=O)O1)C34O)O2 (centres unmarked) [Compound 1.33]
Tetranychus urticae
  reduction in the pest population: more than 80%

## C#CCNC(=O)OC1C(C)OC(OC2C(C)OC(OC3C(C)=CCC4CC(CC5(C=CC(C)C(C(C)CC)O5)O4)OC(=O)C4C=C(C)C(O)C5OCC(=CC=CC3C)C45O)CC2OC)CC1OC (centres unmarked) [Compound 1.42]
Plutella xylostella
  reduction in the pest population: more than 80%

## CCC(C)C1OC2(C=CC1C)CC1CC(CC=C(C)C(OC3CC(OC)C(OC4CC(OC)C(OC(=O)NCC[N+](C)(C)C)C(C)O4)C(C)O3)C(C)C=CC=C3COC4C(O)C(C)=CC(C(=O)O1)C34O)O2.[I-] (centres unmarked) [Compound 1.44]
Spodoptera littoralis
  reduction in the pest population: more than 80%

## CCC(C)C1OC2(C=CC1C)CC1CC(CC=C(C)C(OC3CC(OC)C(OC4CC(OC)C(OC(=O)NN(C)C)C(C)O4)C(C)O3)C(C)C=CC=C3COC4C(O)C(C)=CC(C(=O)O1)C34O)O2 (centres unmarked) [Compound 1.47]
Tetranychus urticae
  reduction in the pest population: more than 80%

## CCNC(=O)OC1C(C)OC(OC2C(C)OC(OC3C(C)=CCC4CC(CC5(C=CC(C)C(C(C)CC)O5)O4)OC(=O)C4C=C(C)C(O)C5OCC(=CC=CC3C)C45O)CC2OC)CC1OC (centres unmarked) [Compound 2.3]
[1]
  reduction in the pest population: more than 80%
Spodoptera littoralis
  reduction in the pest population: more than 80%

## CCC(C)C1OC2(C=CC1C)CC1CC(CC=C(C)C(OC3CC(OC)C(OC4CC(OC)C(OC(=O)NCCOC)C(C)O4)C(C)O3)C(C)C=CC=C3COC4C(O)C(C)=CC(C(=O)O1)C34O)O2 (centres unmarked) [Compound 2.10]
Diabrotica balteata
  reduction in the pest population: more than 80%

## CCC(C)C1OC2(C=CC1C)CC1CC(CC=C(C)C(OC3CC(OC)C(OC4CC(OC)C(OC(=O)NC(C)C)C(C)O4)C(C)O3)C(C)C=CC=C3COC4C(O)C(C)=CC(C(=O)O1)C34O)O2 (centres unmarked) [Compound 2.11]
[1]
  reduction in the pest population: more than 80%
Plutella xylostella
  reduction in the pest population: more than 80%

## CCC(C)C1OC2(C=CC1C)CC1CC(CC=C(C)C(OC3CC(OC)C(OC4CC(OC)C(OC(=O)NCCO)C(C)O4)C(C)O3)C(C)C=CC=C3COC4C(O)C(C)=CC(C(=O)O1)C34O)O2 (centres unmarked) [Compound 2.15]
[1]
  reduction in the pest population: more than 80%
Plutella xylostella
  reduction in the pest population: more than 80%

## CCC(C)C1OC2(C=CC1C)CC1CC(CC=C(C)C(OC3CC(OC)C(OC4CC(OC)C(OC(N)=O)C(C)O4)C(C)O3)C(C)C=CC=C3COC4C(O)C(C)=CC(C(=O)O1)C34O)O2 (centres unmarked) [Compound 2.66]
[1]
  reduction in the pest population: more than 80%
Plutella xylostella
  reduction in the pest population: more than 80%
Tetranychus urticae
  reduction in the pest population: more than 80%

## CCC(C)C1OC2(C=CC1C)CC1CC(CC=C(C)C(OC3CC(OC)C(OC(=O)Nc4ccc([N+](=O)[O-])cc4)C(C)O3)C(C)C=CC=C3COC4C(O)C(C)=CC(C(=O)O1)C34O)O2 (centres unmarked) [Compound 3.1]
Diabrotica balteata
  reduction in the pest population: more than 80%

## CCNC(=O)OC1C(C)OC(OC2C(C)=CCC3CC(CC4(C=CC(C)C(C(C)CC)O4)O3)OC(=O)C3C=C(C)C(O)C4OCC(=CC=CC2C)C34O)CC1OC (centres unmarked) [Compound 3.3]
Plutella xylostella
  reduction in the pest population: more than 80%

## CCC(C)C1OC2(C=CC1C)CC1CC(CC=C(C)C(OC3CC(OC)C(OC(=O)NC4CCCC4)C(C)O3)C(C)C=CC=C3COC4C(O)C(C)=CC(C(=O)O1)C34O)O2 (centres unmarked) [Compound 3.4]
Heliothis virescens
  reduction in the pest population: more than 80%

## CCC(C)C1OC2(C=CC1C)CC1CC(CC=C(C)C(OC3CC(OC)C(OC(=O)NCC(C)C)C(C)O3)C(C)C=CC=C3COC4C(O)C(C)=CC(C(=O)O1)C34O)O2 (centres unmarked) [Compound 3.5]
Spodoptera littoralis
  reduction in the pest population: more than 80%
Heliothis virescens
  reduction in the pest population: more than 80%

## CCCNC(=O)OC1C(C)OC(OC2C(C)=CCC3CC(CC4(C=CC(C)C(C(C)CC)O4)O3)OC(=O)C3C=C(C)C(O)C4OCC(=CC=CC2C)C34O)CC1OC (centres unmarked) [Compound 3.9]
Heliothis virescens
  reduction in the pest population: more than 80%

## CCOCCCNC(=O)OC1C(C)OC(OC2C(C)=CCC3CC(CC4(C=CC(C)C(C(C)CC)O4)O3)OC(=O)C3C=C(C)C(O)C4OCC(=CC=CC2C)C34O)CC1OC (centres unmarked) [Compound 3.12]
Diabrotica balteata
  reduction in the pest population: more than 80%

## C=CCNC(=O)OC1C(C)OC(OC2C(C)=CCC3CC(CC4(C=CC(C)C(C(C)CC)O4)O3)OC(=O)C3C=C(C)C(O)C4OCC(=CC=CC2C)C34O)CC1OC (centres unmarked) [Compound 3.13]
Plutella xylostella
  reduction in the pest population: more than 80%

## CCC(C)C1OC2(C=CC1C)CC1CC(CC=C(C)C(OC3CC(OC)C(OC(=O)NCCF)C(C)O3)C(C)C=CC=C3COC4C(O)C(C)=CC(C(=O)O1)C34O)O2 (centres unmarked) [Compound 3.21]
[1]
  reduction in the pest population: more than 80%
Tetranychus urticae
  reduction in the pest population: more than 80%

## CCC(C)C1OC2(C=CC1C)CC1CC(CC=C(C)C(OC3CC(OC)C(OC(=O)NC)C(C)O3)C(C)C=CC=C3COC4C(O)C(C)=CC(C(=O)O1)C34O)O2 (centres unmarked) [Compound 4.2]
Tetranychus urticae
  reduction in the pest population: more than 80%
Spodoptera littoralis
  reduction in the pest population: more than 80%

## CCC(C)C1OC2(C=CC1C)CC1CC(CC=C(C)C(OC3CC(OC)C(OC(=O)NCC(C)C)C(C)O3)C(C)C=CC=C3COC4C(O)C(C)=CC(C(=O)O1)C34O)O2 (centres unmarked) [Compound 4.5]
Plutella xylostella
  reduction in the pest population: more than 80%

## CCCNC(=O)OC1C(C)OC(OC2C(C)=CCC3CC(CC4(C=CC(C)C(C(C)CC)O4)O3)OC(=O)C3C=C(C)C(O)C4OCC(=CC=CC2C)C34O)CC1OC (centres unmarked) [Compound 4.9]
Plutella xylostella
  reduction in the pest population: more than 80%

## CCC(C)C1OC2(C=CC1C)CC1CC(CC=C(C)C(OC3CC(OC)C(OC(=O)NC(C)C)C(C)O3)C(C)C=CC=C3COC4C(O)C(C)=CC(C(=O)O1)C34O)O2 (centres unmarked) [Compound 4.11]
Heliothis virescens
  reduction in the pest population: more than 80%

## CCC(C)C1OC2(C=CC1C)CC1CC(CC=C(C)C(OC3CC(OC)C(OC(=O)NC4CC4)C(C)O3)C(C)C=CC=C3COC4C(O)C(C)=CC(C(=O)O1)C34O)O2 (centres unmarked) [Compound 4.17]
[1]
  reduction in the pest population: more than 80%

## CCCNC(=S)OC1C(C)OC(OC2C(C)=CCC3CC(CC4(C=CC(C)C(C(C)CC)O4)O3)OC(=O)C3C=C(C)C(O)C4OCC(=CC=CC2C)C34O)CC1OC (centres unmarked) [Compound 5.9]
[1]
  reduction in the pest population: more than 80%

## CCC(C)C1OC2(C=CC1C)CC1CC(CC=C(C)C(OC3CC(OC)C(OC(=S)NCCOC)C(C)O3)C(C)C=CC=C3COC4C(O)C(C)=CC(C(=O)O1)C34O)O2 (centres unmarked) [Compound 5.10]
Diabrotica balteata
  reduction in the pest population: more than 80%

## C=CCNC(=S)OC1C(C)OC(OC2C(C)=CCC3CC(CC4(C=CC(C)C(C(C)CC)O4)O3)OC(=O)C3C=C(C)C(O)C4OCC(=CC=CC2C)C34O)CC1OC (centres unmarked) [Compound 5.13]
Tetranychus urticae
  reduction in the pest population: more than 80%

## CCC(C)C1OC2(C=CC1C)CC1CC(CC=C(C)C(OC3CC(OC)C(OC(=O)OC)C(C)O3)C(C)C=CC=C3COC4C(O)C(C)=CC(C(=O)O1)C34O)O2 (centres unmarked) [Compound 7.1]
Plutella xylostella
  reduction in the pest population: more than 80%
Diabrotica balteata
  reduction in the pest population: more than 80%

## CCC(C)C1OC2(C=CC1C)CC1CC(CC=C(C)C(OC3CC(OC)C(OC4CC(OC)C(OC(=O)OC)C(C)O4)C(C)O3)C(C)C=CC=C3COC4C(O)C(C)=CC(C(=O)O1)C34O)O2 (centres unmarked) [Compound 7.10]
Tetranychus urticae
  reduction in the pest population: more than 80%

## C=CCOC(=O)OC1C(C)OC(OC2C(C)=CCC3CC(CC4(C=CC(C)C(C(C)CC)O4)O3)OC(=O)C3C=C(C)C(O)C4OCC(=CC=CC2C)C34O)CC1OC (centres unmarked) [Compound 8.5]
[1]
  reduction in the pest population: more than 80%
Diabrotica balteata
  reduction in the pest population: more than 80%
Tetranychus urticae
  reduction in the pest population: more than 80%

## CCC(C)C1OC2(C=CC1C)CC1CC(CC=C(C)C(OC3CC(OC)C(OC(=S)OCC(C)C)C(C)O3)C(C)C=CC=C3COC4C(O)C(C)=CC(C(=O)O1)C34O)O2 (centres unmarked) [Compound 9.6]
[1]
  reduction in the pest population: more than 80%
